{"source": "paper PMC7411133", "about": "“Phosphorylations of the Abutilon Mosaic Virus Movement Protein Affect Its Self-Interaction, Symptom Development, Viral DNA Accumulation, and Host Range” (Frontiers in Plant Science, 2020)", "binders": {"B1": {"name": "AbMV movement protein, full-length, wild type (MP^WT), fused to mVenus or mTurquoise2 (natural protein)", "chain": "MDSQLVNPPNAFNYIESHRDEYQLSHDLTEIILQFPSTAAQLTARLSRSCMKIDHCVIEYRQQVPINATGSVIVEIHDKRMTDNESLQASWTFPIRCNIDLHYFSASFFSLKDPIPWKLYYKVCDTNVHQRTHFAKFKGKLKLSTAKHSVDIPFRAPTVRILSKQFSEKDVDFSHVDYGKWERKPIRCASMSRIGLRGPIEIRPGESWASRSTIGTAQPDTDSEMENELHPYRHLNRLGTSLLDPGESASIVGDQRAEPNITMSMGQLNELVRTAVQECVNSNCQASQAKSLK", "notes": "Movement protein (MP; BC1) of Abutilon mosaic virus, full-length; Two copies expressed from one T-DNA (pFRETtv-2-in-1), one with mVenus and one with mTurquoise2, in four layouts (NN, NC, CN, CC); each copy carries one fluorescent protein at one end; also called BC1; mVenus::MP^WT; source: N. benthamiana leaf epidermis, transiently expressed after agro-infiltration, in living cells; not shown: …"}, "B2": {"name": "AbMV movement protein, full-length, T221A/S223A/S250A (MP^AAA), fused to mVenus or mTurquoise2 (natural protein, Abutilon mosaic virus, UniProt P21946 1-293, looked up)", "chain": "B1 chain with T221A, S223A, S250A", "notes": "Movement protein (MP; BC1) of Abutilon mosaic virus, full-length; Two copies expressed from one T-DNA (pFRETtv-2-in-1), one with mVenus and one with mTurquoise2, in four layouts (NN, NC, CN, CC); each copy carries one fluorescent protein at one end; also called mVenus::MP^AAA; MP^AAA::mVenus; source: N. benthamiana leaf epidermis, transiently expressed after agro-infiltration, in living cells; …"}, "B3": {"name": "AbMV movement protein, full-length, T221D/S223D/S250D (MP^DDD), fused to mVenus or mTurquoise2 (natural protein, Abutilon mosaic virus, UniProt P21946 1-293, looked up)", "chain": "B1 chain with T221D, S223D, S250D", "notes": "Movement protein (MP; BC1) of Abutilon mosaic virus, full-length; Two copies expressed from one T-DNA (pFRETtv-2-in-1), one with mVenus and one with mTurquoise2, in four layouts (NN, NC, CN, CC); each copy carries one fluorescent protein at one end; also called mVenus::MP^DDD; MP^DDD::mVenus; source: N. benthamiana leaf epidermis, transiently expressed after agro-infiltration, in living cells; …"}}, "test_in_all_cases": "FRET or BRET; acceptor photobleaching FRET in living N. benthamiana leaf epidermal cells, 3 dpai; acceptor mVenus, donor mTurquoise2; four layouts (NN, NC, CN, CC); without and with local AbMV (DNA-A + DNA-BΔMP) infection; ROIs along the plasma membrane; p19 co-infiltrated", "key": {"[1]": {"target": "AbMV movement protein, full-length, wild type (MP^WT), fused to mVenus or mTurquoise2 (Abutilon mosaic virus) (UniProt P21946)"}, "[2]": {"target": "AbMV movement protein, full-length, T221A/S223A/S250A (MP^AAA), fused to mVenus or mTurquoise2 (Abutilon mosaic virus) (UniProt P21946)"}, "[3]": {"target": "AbMV movement protein, full-length, T221D/S223D/S250D (MP^DDD), fused to mVenus or mTurquoise2 (Abutilon mosaic virus) (UniProt P21946)"}}, "note": "Numbering of substitutions follows the chain as printed. Numbers in names are those of the source. No constants are given. Whether binding was seen depends on the method and setting. Binding seen in cells or lysates may run through a third protein. Some binding calls cover weakened binding; strength is not graded here. Sequences can lack the tags named with a protein."}
{"binder": "B1", "values": [{"measurement": "binding", "setting": "[1]", "value": "binds"}]}
{"binder": "B2", "values": [{"measurement": "binding", "setting": "[2]", "value": "binds"}]}
{"binder": "B3", "values": [{"measurement": "binding", "setting": "[3]", "value": "binds"}]}
